Consider one compound from ChEMBL document CHEMBL2040793, “Thieno[3,2-c]pyran-4-one based novel small molecules: their synthesis, crystal structure analysis and in vitro evaluation as potential anticancer agents” (Bioorg Med Chem Lett, 2012).

The experiment has as its system HepG2. Put plainly: Cytotoxicity against human HepG2 cells after 24 hrs by MTT assay. In kind it is functional, cell-based. The settings on record: HepG2, 24 h.

For `COc1cccc2c1C(=O)c1c(O)c3c(c(O)c1C2=O)C[C@@](O)(C(=O)CO)C[C@@H]3O[C@H]1C[C@H](N)[C@H](O)[C@H](C)O1` [DOXORUBICIN], 5 µM corresponded to half-maximal inhibition (IC50). In other words, the single-digit micromolar range.
